# Measured values from the supplement of paper PMC4604168 (melanoma cell lines).
# This is one part of the list. Single values are uncertain, as repeats are few or missing.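 Imaging used 1,536-well plates; nuclei positive for cleaved PARP by antibody were divided by total DNA-stained nuclei to yield the apoptosis fraction. Doses for screening kept most cells viable, and cell lines differ markedly in resting and induced cleaved-PARP levels.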
# How the values were obtained:
# Test in all cases: cleaved PARP positive nuclei fraction relative to DMSO control; melanoma cells; higher = more apoptosis
# Conditions in all cases: library dose: low library concentration; 72 h
# MZ2-MEL = system: MZ2-MEL
# MeWo = system: MeWo
# RPMI7951 = system: RPMI7951
# RVH-421 = system: RVH-421
# SkMel28 = system: SkMel28
# SkMel2 = system: SkMel2
# SkMel30 = system: SkMel30
# SkMel5 = system: SkMel5
# UACC257 = system: UACC257
# UACC62 = system: UACC62
Compound,cleaved PARP positive nuclei fraction (MZ2-MEL) [%],cleaved PARP positive nuclei fraction (MeWo) [%],cleaved PARP positive nuclei fraction (RPMI7951) [%],cleaved PARP positive nuclei fraction (RVH-421) [%],cleaved PARP positive nuclei fraction (SkMel28) [%],cleaved PARP positive nuclei fraction (SkMel2) [%],cleaved PARP positive nuclei fraction (SkMel30) [%],cleaved PARP positive nuclei fraction (SkMel5) [%],cleaved PARP positive nuclei fraction (UACC257) [%],cleaved PARP positive nuclei fraction (UACC62) [%]
"Cn1cc(C2=C(c3cn(C4CCN(Cc5ccccn5)CC4)c4ccccc34)C(=O)NC2=O)c2ccccc21 [Enzastaurin] + O=C(Nc1ccccc1)c1cc([N+](=O)[O-])ccc1Cl [GW9662] (first compound 0.8 µM, partner dose 2 µM)",104,20.6,36.4,77.4,18.8,176,85.9,149,107,103
"N.N.[Cl][Pt][Cl] [cisplatin] + COc1cc2c(Oc3ccc4[nH]c(C)cc4c3F)ncnc2cc1OCCCN1CCCC1 [cediranib] (first compound 1.6 µM, partner dose 0.4 µM)",47,56.5,147,95,108,176,130,79.3,70.9,41
"CS(=O)(=O)c1ccc(C(=O)Nc2ccc(Cl)c(-c3ccccn3)c2)c(Cl)c1 [vismodegib] + O=C(Oc1ccc([N+](=O)[O-])cc1)N1CCC(C(O)(c2ccc3c(c2)OCO3)c2ccc3c(c2)OCO3)CC1 [JZL184] (first compound 1 µM, partner dose 1 µM)",56.9,43.7,30.8,77.8,86.5,70.4,186,182,51.2,58.5
"N.N.[Cl][Pt][Cl] [cisplatin] + Oc1cc(-c2nc(-c3ccccc3)[nH]c2-c2ccncc2)ccc1Cl [L779450] (first compound 1.6 µM, partner dose 0.2 µM)",110,99.1,179,204,92.8,68.8,98.5,76.4,146,56.4
"C[As](C)SC[C@H](NC(=O)CC[C@H](N)C(=O)O)C(=O)NCC(=O)O [Darinaparsin] + Cc1cc(N2CCOCC2)cc2[nH]c(-c3c(NC[C@@H](O)c4cccc(Cl)c4)cc[nH]c3=O)nc12 [BMS536924] (first compound 0.4 µM, partner dose 0.2 µM)",135,86.5,67.4,48.3,145,96.7,59.6,134,126,75.4
"CCCCCCCCCCCCCCCCCCOP(=O)([O-])OC1CC[N+](C)(C)CC1 [Perifosine] + O=C(Oc1ccc([N+](=O)[O-])cc1)N1CCC(C(O)(c2ccc3c(c2)OCO3)c2ccc3c(c2)OCO3)CC1 [JZL184] (first compound 0.4 µM, partner dose 1 µM)",39.8,64.5,78.8,90.8,182,78,16.2,73.4,11.4,81
"CC(=O)c1c(C)c2cnc(Nc3ccc(N4CCNCC4)cn3)nc2n(C2CCCC2)c1=O [palbociclib] + C/C(O)=C(\C#N)C(=O)Nc1cc(Br)ccc1Br [LFM-A13] (first compound 0.04 µM, partner dose 2 µM)",32.8,103,57.1,113,119,59,103,108,220,150
"N.N.[Cl][Pt][Cl] [cisplatin] + C/C(O)=C(\C#N)C(=O)Nc1cc(Br)ccc1Br [LFM-A13] (first compound 1.6 µM, partner dose 2 µM)",162,49.4,423,23.2,120,123,42.3,82.8,143,81.7
"C[As](C)SC[C@H](NC(=O)CC[C@H](N)C(=O)O)C(=O)NCC(=O)O [Darinaparsin] + O=C(O)c1ccc(-c2c[nH]c3ncc(-c4ccccc4)cc23)cc1C1CCCC1 [GSK650394] (first compound 0.4 µM, partner dose 0.16 µM)",115,111,94.4,70.5,199,59.6,123,43.5,96.8,64.4
"Cn1cc(C2=C(c3cn(C4CCN(Cc5ccccn5)CC4)c4ccccc34)C(=O)NC2=O)c2ccccc21 [Enzastaurin] + COc1cc2ncnc(Nc3ccc(Oc4ccccc4)cc3)c2cc1OC [SrcI1] (first compound 0.8 µM, partner dose 2 µM)",70.8,36.9,30.8,28.8,213,78.3,70.5,67.7,158,97.2
"Cn1cc(C2=C(c3cn(C4CCN(Cc5ccccn5)CC4)c4ccccc34)C(=O)NC2=O)c2ccccc21 [Enzastaurin] + C/C(O)=C(\C#N)C(=O)Nc1cc(Br)ccc1Br [LFM-A13] (first compound 0.8 µM, partner dose 2 µM)",79.1,76.7,159,271,225,109,49.5,83.6,323,58.2

# Part of the list above, as tab-separated lines:
Compound	cleaved PARP positive nuclei fraction (MZ2-MEL) [%]	cleaved PARP positive nuclei fraction (MeWo) [%]	cleaved PARP positive nuclei fraction (RPMI7951) [%]	cleaved PARP positive nuclei fraction (RVH-421) [%]	cleaved PARP positive nuclei fraction (SkMel28) [%]	cleaved PARP positive nuclei fraction (SkMel2) [%]	cleaved PARP positive nuclei fraction (SkMel30) [%]	cleaved PARP positive nuclei fraction (SkMel5) [%]	cleaved PARP positive nuclei fraction (UACC257) [%]	cleaved PARP positive nuclei fraction (UACC62) [%]
CCCCCCCCCCCCCCCCCCOP(=O)([O-])OC1CC[N+](C)(C)CC1 [Perifosine] + O=C(Oc1ccc([N+](=O)[O-])cc1)N1CCC(C(O)(c2ccc3c(c2)OCO3)c2ccc3c(c2)OCO3)CC1 [JZL184] (first compound 0.4 µM, partner dose 1 µM)	39.8	64.5	78.8	90.8	182	78	16.2	73.4	11.4	81
N.N.[Cl][Pt][Cl] [cisplatin] + C/C(O)=C(\C#N)C(=O)Nc1cc(Br)ccc1Br [LFM-A13] (first compound 1.6 µM, partner dose 2 µM)	162	49.4	423	23.2	120	123	42.3	82.8	143	81.7
